Reference: patent publication US20160008471A1, “TRANSDERMAL FORMULATIONS” (priority 2013, published 2016)
Where a name gives a salt, the structure may show the parent alone. Read-outs that look alike come from different tables or passages of the source.

Legend:
[1] = male, bovine, pH 7.4
[2] = horse
[3] = rabbit

Flux ([1]; 58 h) [μg/cm^2/hr]	APC ([1]; 72 h) [cm/s × 10^−8]	Flux ([1]; 72 h) [μg/cm^2/hr]	lag T [1] [h]	lag T [2] [h]	APC ([2]; 72 h) [cm/s × 10^−8]	Flux ([2]; 72 h) [μg/cm^2/hr]	lag T [3] [h]	APC ([3]; 72 h) [cm/s × 10^−8]	Flux ([3]; 72 h) [μg/cm^2/hr]	Flux ([2]; 58 h) [μg/cm^2/hr]	Flux ([3]; 58 h) [μg/cm^2/hr]	Compound
77.9±14.5	85.8	77.9	2.61	8.83	4.78	4.41	10.3	4.99	4.61	–	–	O=C(O)COCCN1CCN(C(c2ccccc2)c2ccc(Cl)cc2)CC1 (stereo not drawn) [Cetirizine, Cetirizine 2HCl]
95.1±33.1	61.9	95.1	0.72	–	28.5	25.3	13.6	46.3	41.5	25.3±1.9	41.47±10.18	CN(C)CCOC(c1ccccc1)c1ccccc1 [Diphenhydramine, Diphenhydramine HCl]
